The test deals with Cyclin-T1 (human (endogenous in primary skin fibroblasts)) (UniProt O60563). The test is described as follows: co-IP; endogenous Cyclin-T1 immunoprecipitated (anti-Cyclin-T1, Protein A-Agarose, 4 h, 4 °C) from fibroblast lysates of the patient (MEPCE haploinsufficient), the patient's parent and control 1; buffer 120 mM NaCl, 50 mM Tris-HCl pH 8.0, 0.5% NP-40, 1 mM EDTA; HEXIM1 detected by immunoblot; co-precipitated HEXIM1 in patient cells reduced to ~74% of control 1 and ~63% of the parent. (In western blotting, separated proteins are transferred to a membrane and probed.)

The chains behind the UniProt entries cited, without tags or fusion partners.
UniProt O60563: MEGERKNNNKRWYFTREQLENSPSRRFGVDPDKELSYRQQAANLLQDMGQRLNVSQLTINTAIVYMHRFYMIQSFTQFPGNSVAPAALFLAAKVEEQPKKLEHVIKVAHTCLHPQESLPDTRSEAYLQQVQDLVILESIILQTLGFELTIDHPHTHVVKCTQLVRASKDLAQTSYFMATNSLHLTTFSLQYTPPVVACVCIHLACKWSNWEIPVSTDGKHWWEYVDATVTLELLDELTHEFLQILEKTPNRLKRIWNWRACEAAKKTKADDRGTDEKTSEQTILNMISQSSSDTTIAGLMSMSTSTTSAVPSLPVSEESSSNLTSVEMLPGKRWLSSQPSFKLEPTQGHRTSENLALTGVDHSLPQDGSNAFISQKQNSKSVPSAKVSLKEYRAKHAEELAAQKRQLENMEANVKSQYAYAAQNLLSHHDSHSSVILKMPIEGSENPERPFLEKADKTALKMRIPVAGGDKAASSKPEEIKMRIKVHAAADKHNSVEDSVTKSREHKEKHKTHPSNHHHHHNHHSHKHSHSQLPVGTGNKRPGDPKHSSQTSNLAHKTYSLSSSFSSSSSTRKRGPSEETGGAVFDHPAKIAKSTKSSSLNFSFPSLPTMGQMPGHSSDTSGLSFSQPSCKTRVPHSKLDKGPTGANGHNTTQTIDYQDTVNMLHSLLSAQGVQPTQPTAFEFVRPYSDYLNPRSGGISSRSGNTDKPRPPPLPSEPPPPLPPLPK
UniProt O94992: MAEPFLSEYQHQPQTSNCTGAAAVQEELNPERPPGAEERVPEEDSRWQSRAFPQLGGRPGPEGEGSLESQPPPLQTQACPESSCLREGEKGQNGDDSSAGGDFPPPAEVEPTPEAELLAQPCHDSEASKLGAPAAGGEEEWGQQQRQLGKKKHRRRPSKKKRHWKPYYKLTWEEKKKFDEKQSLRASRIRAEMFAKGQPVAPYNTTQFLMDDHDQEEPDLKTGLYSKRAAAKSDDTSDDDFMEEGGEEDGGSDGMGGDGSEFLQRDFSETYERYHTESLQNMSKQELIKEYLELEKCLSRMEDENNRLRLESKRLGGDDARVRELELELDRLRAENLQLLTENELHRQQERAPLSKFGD

No constants are given. Whether binding was seen depends on the method and setting. In cells and extracts the contact can be indirect. Some entries that bind do so weakly or less than the wild type.

On to HEXIM1 (from UniProt O94992 1-359), for which the binding entry is listed as “binds”.

The values are drawn from paper PMC6715695.
